Assay results: PMC11281901
No constants are given. Whether binding was seen depends on the method and setting. Some entries that bind do so weakly or less than the wild type.

Molecular target: T1, mitochondrial antiviral signaling protein (MAVS) (mouse (endogenous in RAW264.7)), Q8VCF0
T1 chain: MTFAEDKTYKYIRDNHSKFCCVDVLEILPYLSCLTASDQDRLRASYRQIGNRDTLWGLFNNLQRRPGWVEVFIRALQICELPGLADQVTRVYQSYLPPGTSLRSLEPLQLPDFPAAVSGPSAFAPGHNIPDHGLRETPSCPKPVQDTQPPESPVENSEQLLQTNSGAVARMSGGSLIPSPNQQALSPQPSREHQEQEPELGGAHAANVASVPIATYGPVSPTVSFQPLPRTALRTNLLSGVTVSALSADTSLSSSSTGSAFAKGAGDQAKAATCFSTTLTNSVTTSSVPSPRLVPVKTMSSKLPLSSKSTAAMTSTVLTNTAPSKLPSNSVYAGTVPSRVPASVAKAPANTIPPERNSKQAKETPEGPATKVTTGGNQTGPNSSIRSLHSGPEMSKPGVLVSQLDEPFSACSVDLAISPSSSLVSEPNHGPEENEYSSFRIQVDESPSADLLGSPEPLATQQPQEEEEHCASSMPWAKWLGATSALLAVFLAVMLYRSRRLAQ
Experiment: SDD-AGE; GST-RIG-I(N) incubated with K63-Ub4, then with mitochondria isolated from RAW264.7 cells preincubated with or without lactate (5 mM, 10 mM) or pyruvate; mitochondria extracts on SDD-AGE, immunoblot
Details: remark: other sources report otherwise

B1: mitochondrial antiviral signaling protein (MAVS), Q8VCF0 1-503 (protein)
chain: MTFAEDKTYKYIRDNHSKFCCVDVLEILPYLSCLTASDQDRLRASYRQIGNRDTLWGLFNNLQRRPGWVEVFIRALQICELPGLADQVTRVYQSYLPPGTSLRSLEPLQLPDFPAAVSGPSAFAPGHNIPDHGLRETPSCPKPVQDTQPPESPVENSEQLLQTNSGAVARMSGGSLIPSPNQQALSPQPSREHQEQEPELGGAHAANVASVPIATYGPVSPTVSFQPLPRTALRTNLLSGVTVSALSADTSLSSSSTGSAFAKGAGDQAKAATCFSTTLTNSVTTSSVPSPRLVPVKTMSSKLPLSSKSTAAMTSTVLTNTAPSKLPSNSVYAGTVPSRVPASVAKAPANTIPPERNSKQAKETPEGPATKVTTGGNQTGPNSSIRSLHSGPEMSKPGVLVSQLDEPFSACSVDLAISPSSSLVSEPNHGPEENEYSSFRIQVDESPSADLLGSPEPLATQQPQEEEEHCASSMPWAKWLGATSALLAVFLAVMLYRSRRLAQ
- binding: binds
